For one substance, binding results are on record in paper PMC8433397.

The chains behind the UniProt entries cited, without tags or fusion partners. Where a name states a change or a piece, a line headed by the entry shows the natural chain unless it says otherwise.
UniProt P06400: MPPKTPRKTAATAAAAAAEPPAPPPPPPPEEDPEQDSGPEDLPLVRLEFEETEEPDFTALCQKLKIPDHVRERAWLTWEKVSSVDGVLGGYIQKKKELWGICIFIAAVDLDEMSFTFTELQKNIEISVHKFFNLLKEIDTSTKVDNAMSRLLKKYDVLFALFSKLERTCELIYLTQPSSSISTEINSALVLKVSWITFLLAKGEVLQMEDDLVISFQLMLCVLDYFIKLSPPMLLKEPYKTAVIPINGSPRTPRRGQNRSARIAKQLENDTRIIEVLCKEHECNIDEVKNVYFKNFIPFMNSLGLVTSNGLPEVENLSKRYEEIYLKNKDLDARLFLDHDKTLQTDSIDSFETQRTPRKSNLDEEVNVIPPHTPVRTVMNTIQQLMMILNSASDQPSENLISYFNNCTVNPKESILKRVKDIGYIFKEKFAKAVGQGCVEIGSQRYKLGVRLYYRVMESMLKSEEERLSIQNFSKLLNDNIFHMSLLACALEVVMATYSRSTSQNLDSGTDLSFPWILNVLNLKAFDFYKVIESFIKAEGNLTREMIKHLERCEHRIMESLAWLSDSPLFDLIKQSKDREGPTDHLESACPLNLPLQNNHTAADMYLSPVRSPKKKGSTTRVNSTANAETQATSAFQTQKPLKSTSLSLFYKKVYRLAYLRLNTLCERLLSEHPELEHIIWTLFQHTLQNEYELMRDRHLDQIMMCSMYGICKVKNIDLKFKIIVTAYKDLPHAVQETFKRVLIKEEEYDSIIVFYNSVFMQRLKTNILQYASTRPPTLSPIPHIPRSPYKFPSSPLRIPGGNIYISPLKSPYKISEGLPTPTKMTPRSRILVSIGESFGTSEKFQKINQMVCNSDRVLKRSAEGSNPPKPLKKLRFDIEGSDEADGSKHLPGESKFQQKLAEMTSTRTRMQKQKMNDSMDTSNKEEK
UniProt Q9Y297: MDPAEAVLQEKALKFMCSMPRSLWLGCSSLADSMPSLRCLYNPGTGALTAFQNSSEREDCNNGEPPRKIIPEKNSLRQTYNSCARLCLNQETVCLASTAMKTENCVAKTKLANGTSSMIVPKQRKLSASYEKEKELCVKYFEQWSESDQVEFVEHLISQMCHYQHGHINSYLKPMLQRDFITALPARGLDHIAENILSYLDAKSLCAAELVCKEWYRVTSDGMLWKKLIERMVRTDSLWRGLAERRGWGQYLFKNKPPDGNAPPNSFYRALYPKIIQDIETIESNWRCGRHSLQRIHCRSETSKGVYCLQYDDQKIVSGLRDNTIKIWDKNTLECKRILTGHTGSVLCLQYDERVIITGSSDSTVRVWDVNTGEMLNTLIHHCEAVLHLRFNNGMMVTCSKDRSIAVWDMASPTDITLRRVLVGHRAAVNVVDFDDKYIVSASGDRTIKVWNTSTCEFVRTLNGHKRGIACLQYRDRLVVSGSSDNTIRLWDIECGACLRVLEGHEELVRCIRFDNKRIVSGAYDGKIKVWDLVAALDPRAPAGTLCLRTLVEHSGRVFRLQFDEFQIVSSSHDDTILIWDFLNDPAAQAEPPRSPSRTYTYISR

In the experiment the target is RB1 with the CK1ε phosphorylation sites S508/T510/S513 mutated (UniProt P06400). Briefly: co-IP; in cells; lysis in EBC buffer (50 mM Tris-HCl pH 7.4, 120 mM NaCl, 0.5% NP-40), 1000 μg lysate protein with antibody-conjugated protein A/G beads or HA-/Flag-agarose beads at 4 °C, washed four times with NETN buffer, immunoblot; with or without ribociclib (Fig. 2i). Background: Immunoblotting shows a protein as a band on a membrane.

Results are given in words; binding and its absence hold for the method and conditions named. Binding seen in cells or lysates may run through a third protein. A result given as binding can be weak or reduced; the word gives no strength.

Take “βTrCP1 (co-immunoprecipitation in cells) (from UniProt Q9Y297 1-605)”: the binding entry was “binds”.
